Results published in patent US20090232783.
At least one result comes from cells or an extract, where the contact may be indirect.

Target: Nuclear ferritin-H (K562 nuclear extract, crude or heat/proteinase K enriched) (Homo sapiens) (UniProt P02794)
Assay: EMSA
Conditions: protein in an extract; label: 32P

“AACTCCTAAGCCAGTGCCAGAAGAGCCAAGGACAGGT (double strand) [beta-globin -164/-128 wt oligo]”: binds.
